No constants are given. Whether binding was seen depends on the method and setting. Some results given as binding are weak or reduced against the parent protein; the word gives no strength.

Sequences of proteins named here, by UniProt entry; tags and fusion partners are left off. Residues count along the entry.
UniProt P48061, residues 22-89: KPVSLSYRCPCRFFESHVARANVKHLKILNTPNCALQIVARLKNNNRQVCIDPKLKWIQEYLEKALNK

The labels stand for the following.
B1: VH1 + VL1 (antibody, V domains shown)
VH: QVQLVQSGAEVKKPGASVKVSCKASGYTFTSYYIHWVRQAPGQRLEWIGWIYPGNVNTKYNEKFKGRVTITADTSASTAYMELSSLRSEDTAVYYCARCWGYYYGSSYAMDYWGQGTLVTVSS
VL: EIVLTQSPDFQSVTPKEKVTITCRASQSIGTSIHWYQQKPDQSPKLLIKYASESISGVPSRFSGSGSGTDFTLTINSLEAEDAATYYCQQSNSWPTYTFGGGTKLEIK
B2: VH3 + VL2 (antibody, V domains shown)
VH: QVQLVQSGAEVKKPGASVKVSCKASGYTFTSYYIHWVRQAPGQGLEWIGWIYPGNVNTKYNEKFKGRATITADTSASTAYMELSSLRSEDTAVYFCARCWGYYYGSSYAMDYWGQGTLVTVSS
VL: EIVLTQSPDFQSVTPKEKVTITCRASQSIGTSIHWYQQKPDQSPRLLIKYASESISGVPSRFSGSGSGTDFTLTINSLEAEDAADYYCQQSNSWPTYTFGGGTKLEIK
B3: VH2 + VL2 (antibody, V domains shown)
VH: QVQLVQSGAEVKKPGASVKVSCKASGYTFTSYYIHWVRQAPGQRLEWIGWIYPGNVNTKYNEKFKGRATITADTSASTAYMELSSLRSEDTAVYFCARCWGYYYGSSYAMDYWGQGTLVTVSS
VL: EIVLTQSPDFQSVTPKEKVTITCRASQSIGTSIHWYQQKPDQSPRLLIKYASESISGVPSRFSGSGSGTDFTLTINSLEAEDAADYYCQQSNSWPTYTFGGGTKLEIK
B4: VH3 + VL3 (antibody, V domains shown)
VH: QVQLVQSGAEVKKPGASVKVSCKASGYTFTSYYIHWVRQAPGQGLEWIGWIYPGNVNTKYNEKFKGRATITADTSASTAYMELSSLRSEDTAVYFCARCWGYYYGSSYAMDYWGQGTLVTVSS
VL: EIVLTQSPDFQSVTPKEKVTFTCRASQSIGTSIHWYQQKPDQSPRLLIKYASESISGIPSRFSGSGSGTDFTLTINSLEAEDAADYYCQQSNSWPTYTFGGGTKLEIK
B5: VH1 + VL3 (antibody, V domains shown)
VH: QVQLVQSGAEVKKPGASVKVSCKASGYTFTSYYIHWVRQAPGQRLEWIGWIYPGNVNTKYNEKFKGRVTITADTSASTAYMELSSLRSEDTAVYYCARCWGYYYGSSYAMDYWGQGTLVTVSS
VL: EIVLTQSPDFQSVTPKEKVTFTCRASQSIGTSIHWYQQKPDQSPRLLIKYASESISGIPSRFSGSGSGTDFTLTINSLEAEDAADYYCQQSNSWPTYTFGGGTKLEIK
B6: VH2 + VL3 (antibody, V domains shown)
VH: QVQLVQSGAEVKKPGASVKVSCKASGYTFTSYYIHWVRQAPGQRLEWIGWIYPGNVNTKYNEKFKGRATITADTSASTAYMELSSLRSEDTAVYFCARCWGYYYGSSYAMDYWGQGTLVTVSS
VL: EIVLTQSPDFQSVTPKEKVTFTCRASQSIGTSIHWYQQKPDQSPRLLIKYASESISGIPSRFSGSGSGTDFTLTINSLEAEDAADYYCQQSNSWPTYTFGGGTKLEIK
B7: VH2 + VL1 (antibody, V domains shown)
VH: QVQLVQSGAEVKKPGASVKVSCKASGYTFTSYYIHWVRQAPGQRLEWIGWIYPGNVNTKYNEKFKGRATITADTSASTAYMELSSLRSEDTAVYFCARCWGYYYGSSYAMDYWGQGTLVTVSS
VL: EIVLTQSPDFQSVTPKEKVTITCRASQSIGTSIHWYQQKPDQSPKLLIKYASESISGVPSRFSGSGSGTDFTLTINSLEAEDAATYYCQQSNSWPTYTFGGGTKLEIK
B8: VH3 + VL1 (antibody, V domains shown)
VH: QVQLVQSGAEVKKPGASVKVSCKASGYTFTSYYIHWVRQAPGQGLEWIGWIYPGNVNTKYNEKFKGRATITADTSASTAYMELSSLRSEDTAVYFCARCWGYYYGSSYAMDYWGQGTLVTVSS
VL: EIVLTQSPDFQSVTPKEKVTITCRASQSIGTSIHWYQQKPDQSPKLLIKYASESISGVPSRFSGSGSGTDFTLTINSLEAEDAATYYCQQSNSWPTYTFGGGTKLEIK
B9: VH1 + VL2 (antibody, V domains shown)
VH: QVQLVQSGAEVKKPGASVKVSCKASGYTFTSYYIHWVRQAPGQRLEWIGWIYPGNVNTKYNEKFKGRVTITADTSASTAYMELSSLRSEDTAVYYCARCWGYYYGSSYAMDYWGQGTLVTVSS
VL: EIVLTQSPDFQSVTPKEKVTITCRASQSIGTSIHWYQQKPDQSPRLLIKYASESISGVPSRFSGSGSGTDFTLTINSLEAEDAADYYCQQSNSWPTYTFGGGTKLEIK

The target in the assay is antigen (SDF-1a) (UniProt P48061). The assay can be described thus: ELISA, antibody coated (from 100 ug/ml, 1/3 serial dilution), SDF-1a at 2 ug/ml, His-[HRP] detection, OD450.
In the case of B1, the binding entry was “binds”. For the molecule B2, the binding entry is “binds”. Turning to B3, the binding result is on record as “binds”.

Regarding B4, the binding result is reported as “binds”. For the molecule B5, the binding entry was “binds”.

On to B6, for which the binding entry was “binds”.

Take B7: the binding entry is recorded as “binds”.

With B8, the binding result was “binds”.

With B9, the binding result was “binds”.
